Reference: article PMC7794362, “Structural basis for distinct inflammasome complex assembly by human NLRP1 and CARD8” (Nature Communications, 2021)
No constants are given. Whether binding was seen depends on the method and setting. Some binding calls cover weakened binding; strength is not graded here. For some assays here: Sequences can lack the tags named with a protein.

Legend:
[1] = molecular target: mCherry-tagged NLRP1-FIIND^UPA-CARD (human) (UniProt Q9C000); assay: native gel or EMSA; blue-native PAGE blot of mCherry-tagged NLRP1 constructs expressed in HEK293T cells at limiting, comparable expression levels
[2] = molecular target: NLRP1 full-length FIIND-CARD (FIIND^fl-CARD) (human) (UniProt Q9C000); assay: negative stain EM; purified recombinant fragments; diluted to 0.01-0.05 mg/ml immediately before grid preparation; T12 120 keV microscope; both purified

Row | binding [1] | binding [2] | Binder
1 | binds | – | recombinant NLRP1-FIIND^UPA-CARD (a.a. 1213-1473), bacteria-derived (domain or fragment, human, UniProt Q9C000 1213-1473, looked up, C-terminal auto-cleavage fragment (FIIND^UPA-CARD) of human NLRP1, a.a; 1213-1473; also called NLRP1-FIIND^UPA-CARD filaments; SNAP-NLRP1-FIIND^UPA-CARD) SPLGVLLKMIHNALRFIPVTSVVLLYHRVHPEEVTFHLYLIPSDCSIRKAIDDLEMKFQFVRIHKPPPLTPLYMGCRYTVSGSGSGMLEILPKELELCYRSPGEDQLFSEFYVGHLGSGIRLQVKDKKDETLVWEALVKPGDLMPATTLIPPARIAVPSPLDAPQLLHFVDQYREQLIARVTSVEVVLDKLHGQVLSQEQYERVLAENTRPSQMRKLFSLSQSWDRKCKDGLYQALKETHPHLIMELWEKGSKKGLLPLSS
2 | – | no binding | NLRP1 full-length FIIND-CARD (FIIND^fl-CARD) (domain or fragment, UniProt Q9C000 985-1473) SRRKPSVMTPTEGLDTGEMSNSTSSLKRQRLGSERAASHVAQANLKLLDVSKIFPIAEIAEESSPEVVPVELLCVPSPASQGDLHTKPLGTDDDFWGPTGPVATEVVDKEKNLYRVHFPVAGSYRWPNTGLCFVMREAVTVEIEFCVWDQFLGEINPQHSWMVAGPLLDIKAEPGAVEAVHLPHFVALQGGHVDTSLFQMAHFKEEGMLLEKPARVELHHIVLENPSFSPLGVLLKMIHNALRFIPVTSVVLLYHRVHPEEVTFHLYLIPSDCSIRKAIDDLEMKFQFVRIHKPPPLTPLYMGCRYTVSGSGSGMLEILPKELELCYRSPGEDQLFSEFYVGHLGSGIRLQVKDKKDETLVWEALVKPGDLMPATTLIPPARIAVPSPLDAPQLLHFVDQYREQLIARVTSVEVVLDKLHGQVLSQEQYERVLAENTRPSQMRKLFSLSQSWDRKCKDGLYQALKETHPHLIMELWEKGSKKGLLPLSS
